Test results reported in patent publication US7297676B2, “Thymosin alpha 1 peptide/polymer conjugates” (SciClone Pharmaceuticals, Inc., priority 2001, dated 2007).
At least one peptide structure holds a part that was inferred or is arguable (an end, a ring closure or a residue).

How the values were obtained:
Assay type in all cases: in vivo, rat
IL-2 = experiment: Example 3: IL-2 in plasma by ELISA in 5-FU treated rats; settings: one animal given both injection 3.5 mg/Kg and continuous infusion 3.5 mg/Kg
[1] = system: activated lymphocytes (CD25+CD3+); experiment: Example 3: activated lymphocytes by flow cytometry in 5-FU treated rats; settings: time not stated
NK activity = experiment: Example 2: NK activity (LDH released from YAC-1 cells after 4 h exposure to PBMC) in 5-FU treated rats; settings: continuous infusion by minipump 3.5 mg/Kg/5 days
total leukocyte number = experiment: Example 2: total white blood cell count in 5-FU treated rats
[2] = system: T helper lymphocytes (CD3+CD4+); experiment: Example 3: T helper lymphocytes by flow cytometry in 5-FU treated rats; settings: 3.5 mg/Kg by either delivery method (s.c. injection or continuous infusion); 14 day experiment
[3] = one animal, high dose injection 3.5 mg/Kg followed by infusion 3.5 mg/Kg

## Ac-SDAAVDTSSEITTKDLKEKKEVVEEAEN-OH [TA1, Thymosin alpha 1]
IL-2
  plasma level of IL-2 relative to other animals: even greater levels
[1]; continuous infusion 3.5 mg/Kg/5 days
  activated lymphocytes as percentage of lymphocytes: 4 % of lymphocytes
[1]; [3]
  activated lymphocytes: 976
  activated lymphocytes as percentage of lymphocytes: 10 % of lymphocytes
NK activity
  recovery of NK activity to baseline levels: complete recovery of NK activity to baseline levels
Total leukocyte number; continuous infusion by minipump 3.5 mg/Kg/5 days
  time to statistically significant and complete recovery of total white blood cell count to baseline levels: 5 days
Total leukocyte number; low (0.2 mg/Kg) or high (3.5 mg/Kg) dose by s.c. injection, compared to untreated animals
  recovery of total white blood cell count: trended towards a sooner increase in recovery
[2]
  return of T helper lymphocytes (CD3+CD4+) to baseline: sufficient to return the levels of T helper cells to baseline
